According to the supplement of paper PMC6411743:
± gives the standard deviation of the averaged measurements. The entries are a selection whose mix differs from that of the whole data set.

Chains of the proteins cited; added tags and fusions are not shown. Lines headed by an entry give the natural chain unless they say otherwise; changes in a name come on top.
UniProt P49902: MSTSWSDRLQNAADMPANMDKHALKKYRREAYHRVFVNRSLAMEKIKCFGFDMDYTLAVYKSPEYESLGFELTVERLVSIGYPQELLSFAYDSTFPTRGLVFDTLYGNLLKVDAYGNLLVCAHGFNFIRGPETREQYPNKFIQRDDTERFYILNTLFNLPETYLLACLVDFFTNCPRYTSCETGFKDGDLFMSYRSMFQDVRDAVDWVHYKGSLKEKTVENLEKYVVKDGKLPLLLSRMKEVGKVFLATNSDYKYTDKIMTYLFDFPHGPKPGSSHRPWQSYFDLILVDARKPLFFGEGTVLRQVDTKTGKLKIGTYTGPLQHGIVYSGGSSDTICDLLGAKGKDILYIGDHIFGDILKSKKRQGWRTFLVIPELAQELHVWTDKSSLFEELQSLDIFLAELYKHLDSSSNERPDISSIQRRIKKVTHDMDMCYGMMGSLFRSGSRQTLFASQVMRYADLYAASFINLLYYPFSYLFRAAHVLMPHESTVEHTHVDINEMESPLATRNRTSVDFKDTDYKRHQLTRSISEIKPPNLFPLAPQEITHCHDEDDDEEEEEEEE
UniProt P53350, whole entry: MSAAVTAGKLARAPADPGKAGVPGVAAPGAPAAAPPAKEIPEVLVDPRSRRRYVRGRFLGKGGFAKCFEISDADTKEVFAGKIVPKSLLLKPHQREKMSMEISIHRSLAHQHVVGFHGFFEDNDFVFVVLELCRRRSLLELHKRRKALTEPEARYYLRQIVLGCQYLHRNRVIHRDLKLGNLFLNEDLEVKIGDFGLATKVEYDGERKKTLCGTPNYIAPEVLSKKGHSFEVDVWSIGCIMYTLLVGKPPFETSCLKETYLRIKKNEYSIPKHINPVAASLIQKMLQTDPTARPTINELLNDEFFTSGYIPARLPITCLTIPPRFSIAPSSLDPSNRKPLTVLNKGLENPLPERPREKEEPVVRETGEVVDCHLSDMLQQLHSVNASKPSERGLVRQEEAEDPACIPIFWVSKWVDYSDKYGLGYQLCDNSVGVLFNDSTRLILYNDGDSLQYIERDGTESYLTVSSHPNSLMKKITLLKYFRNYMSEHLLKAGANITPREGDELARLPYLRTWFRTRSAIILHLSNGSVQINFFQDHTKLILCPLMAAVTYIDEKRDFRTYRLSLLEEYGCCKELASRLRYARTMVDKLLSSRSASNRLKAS
UniProt P50897: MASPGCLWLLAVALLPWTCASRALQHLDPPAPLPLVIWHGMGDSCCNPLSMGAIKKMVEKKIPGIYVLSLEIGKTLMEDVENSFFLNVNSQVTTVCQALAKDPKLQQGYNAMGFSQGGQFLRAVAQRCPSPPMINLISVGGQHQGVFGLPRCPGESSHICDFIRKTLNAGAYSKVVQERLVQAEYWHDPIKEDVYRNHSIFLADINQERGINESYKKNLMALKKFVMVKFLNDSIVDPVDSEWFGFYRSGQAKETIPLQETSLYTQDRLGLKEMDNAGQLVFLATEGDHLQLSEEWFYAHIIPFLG
UniProt P41208: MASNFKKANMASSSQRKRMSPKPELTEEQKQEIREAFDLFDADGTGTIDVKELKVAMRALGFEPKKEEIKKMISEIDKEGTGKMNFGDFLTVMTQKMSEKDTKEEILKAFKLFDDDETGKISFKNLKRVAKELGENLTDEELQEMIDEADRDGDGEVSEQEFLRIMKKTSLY
UniProt P42858, whole entry: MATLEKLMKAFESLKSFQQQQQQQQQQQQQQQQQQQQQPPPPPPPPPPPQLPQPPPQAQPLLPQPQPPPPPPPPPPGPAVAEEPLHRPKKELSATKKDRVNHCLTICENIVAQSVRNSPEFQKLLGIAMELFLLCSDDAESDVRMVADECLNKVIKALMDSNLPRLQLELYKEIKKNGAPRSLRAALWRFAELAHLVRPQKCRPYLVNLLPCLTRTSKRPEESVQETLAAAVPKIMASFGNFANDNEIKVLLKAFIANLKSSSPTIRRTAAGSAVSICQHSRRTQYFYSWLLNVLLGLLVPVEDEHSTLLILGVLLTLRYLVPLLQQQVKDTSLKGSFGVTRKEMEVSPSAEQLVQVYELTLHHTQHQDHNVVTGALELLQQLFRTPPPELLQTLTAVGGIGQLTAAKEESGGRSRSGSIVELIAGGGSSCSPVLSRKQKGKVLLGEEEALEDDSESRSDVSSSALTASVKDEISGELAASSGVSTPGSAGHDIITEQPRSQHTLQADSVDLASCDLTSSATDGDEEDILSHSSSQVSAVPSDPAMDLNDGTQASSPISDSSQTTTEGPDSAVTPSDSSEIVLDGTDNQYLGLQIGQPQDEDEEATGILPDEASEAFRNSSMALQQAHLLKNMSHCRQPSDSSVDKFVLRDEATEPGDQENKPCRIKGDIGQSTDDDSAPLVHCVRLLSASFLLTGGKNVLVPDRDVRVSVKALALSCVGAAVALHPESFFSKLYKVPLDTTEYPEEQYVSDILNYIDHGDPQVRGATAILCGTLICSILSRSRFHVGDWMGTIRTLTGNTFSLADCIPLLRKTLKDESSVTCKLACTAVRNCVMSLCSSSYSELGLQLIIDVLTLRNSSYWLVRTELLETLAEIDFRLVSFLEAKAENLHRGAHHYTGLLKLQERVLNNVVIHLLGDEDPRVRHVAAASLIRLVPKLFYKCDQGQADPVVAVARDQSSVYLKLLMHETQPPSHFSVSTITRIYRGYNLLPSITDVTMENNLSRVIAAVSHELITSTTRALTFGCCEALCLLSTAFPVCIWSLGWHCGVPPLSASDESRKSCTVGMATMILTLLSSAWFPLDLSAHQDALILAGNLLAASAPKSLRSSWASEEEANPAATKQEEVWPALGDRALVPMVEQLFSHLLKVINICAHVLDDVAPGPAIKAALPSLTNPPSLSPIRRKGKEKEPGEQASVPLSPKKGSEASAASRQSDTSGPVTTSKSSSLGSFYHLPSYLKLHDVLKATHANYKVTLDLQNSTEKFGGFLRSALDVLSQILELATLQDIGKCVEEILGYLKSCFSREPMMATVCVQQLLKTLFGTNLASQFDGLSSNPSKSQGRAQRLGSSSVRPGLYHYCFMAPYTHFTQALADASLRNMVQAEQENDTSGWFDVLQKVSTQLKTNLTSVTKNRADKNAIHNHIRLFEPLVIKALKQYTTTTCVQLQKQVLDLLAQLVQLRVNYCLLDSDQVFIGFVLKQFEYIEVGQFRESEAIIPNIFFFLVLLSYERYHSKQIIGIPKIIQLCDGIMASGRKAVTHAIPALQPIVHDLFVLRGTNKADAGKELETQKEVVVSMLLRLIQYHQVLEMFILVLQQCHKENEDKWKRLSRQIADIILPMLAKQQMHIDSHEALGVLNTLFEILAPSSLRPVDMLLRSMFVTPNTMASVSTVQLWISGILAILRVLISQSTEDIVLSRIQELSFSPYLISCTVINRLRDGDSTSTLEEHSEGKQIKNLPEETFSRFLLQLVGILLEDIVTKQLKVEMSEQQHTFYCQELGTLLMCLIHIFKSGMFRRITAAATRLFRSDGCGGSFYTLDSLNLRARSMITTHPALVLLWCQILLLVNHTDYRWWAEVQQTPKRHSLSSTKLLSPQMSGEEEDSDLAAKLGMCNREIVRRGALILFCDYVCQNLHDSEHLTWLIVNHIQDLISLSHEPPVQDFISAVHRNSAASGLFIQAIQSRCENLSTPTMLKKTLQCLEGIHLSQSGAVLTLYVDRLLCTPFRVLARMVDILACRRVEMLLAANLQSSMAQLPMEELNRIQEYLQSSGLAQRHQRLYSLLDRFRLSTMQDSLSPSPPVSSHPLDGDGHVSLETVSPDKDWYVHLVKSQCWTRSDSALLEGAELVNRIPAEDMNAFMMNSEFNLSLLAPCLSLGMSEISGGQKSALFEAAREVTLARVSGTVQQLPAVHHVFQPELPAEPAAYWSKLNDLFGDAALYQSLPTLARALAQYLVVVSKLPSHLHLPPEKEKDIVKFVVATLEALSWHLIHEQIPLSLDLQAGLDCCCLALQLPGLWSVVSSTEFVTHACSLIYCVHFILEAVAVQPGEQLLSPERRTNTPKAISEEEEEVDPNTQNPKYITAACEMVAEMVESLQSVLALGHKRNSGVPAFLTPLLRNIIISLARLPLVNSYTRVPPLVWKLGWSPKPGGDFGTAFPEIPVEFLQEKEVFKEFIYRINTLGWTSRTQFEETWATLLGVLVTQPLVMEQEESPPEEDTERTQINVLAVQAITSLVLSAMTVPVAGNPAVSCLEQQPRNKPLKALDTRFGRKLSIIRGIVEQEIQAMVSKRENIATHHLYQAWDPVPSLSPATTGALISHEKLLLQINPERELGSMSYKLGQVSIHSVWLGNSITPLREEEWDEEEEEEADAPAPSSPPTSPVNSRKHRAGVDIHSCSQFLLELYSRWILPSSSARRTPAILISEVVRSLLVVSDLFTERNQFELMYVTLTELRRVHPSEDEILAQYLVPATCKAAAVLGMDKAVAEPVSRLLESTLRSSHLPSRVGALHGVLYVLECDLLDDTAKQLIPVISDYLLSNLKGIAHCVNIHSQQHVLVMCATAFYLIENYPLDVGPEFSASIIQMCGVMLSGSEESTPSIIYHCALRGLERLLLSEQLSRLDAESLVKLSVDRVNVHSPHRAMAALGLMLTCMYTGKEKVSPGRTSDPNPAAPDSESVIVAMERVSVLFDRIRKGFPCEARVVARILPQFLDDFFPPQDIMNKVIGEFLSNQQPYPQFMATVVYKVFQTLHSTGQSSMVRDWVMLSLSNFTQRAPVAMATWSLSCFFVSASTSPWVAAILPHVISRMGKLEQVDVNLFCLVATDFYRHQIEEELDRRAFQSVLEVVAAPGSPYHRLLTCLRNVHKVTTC
UniProt P42684, whole entry: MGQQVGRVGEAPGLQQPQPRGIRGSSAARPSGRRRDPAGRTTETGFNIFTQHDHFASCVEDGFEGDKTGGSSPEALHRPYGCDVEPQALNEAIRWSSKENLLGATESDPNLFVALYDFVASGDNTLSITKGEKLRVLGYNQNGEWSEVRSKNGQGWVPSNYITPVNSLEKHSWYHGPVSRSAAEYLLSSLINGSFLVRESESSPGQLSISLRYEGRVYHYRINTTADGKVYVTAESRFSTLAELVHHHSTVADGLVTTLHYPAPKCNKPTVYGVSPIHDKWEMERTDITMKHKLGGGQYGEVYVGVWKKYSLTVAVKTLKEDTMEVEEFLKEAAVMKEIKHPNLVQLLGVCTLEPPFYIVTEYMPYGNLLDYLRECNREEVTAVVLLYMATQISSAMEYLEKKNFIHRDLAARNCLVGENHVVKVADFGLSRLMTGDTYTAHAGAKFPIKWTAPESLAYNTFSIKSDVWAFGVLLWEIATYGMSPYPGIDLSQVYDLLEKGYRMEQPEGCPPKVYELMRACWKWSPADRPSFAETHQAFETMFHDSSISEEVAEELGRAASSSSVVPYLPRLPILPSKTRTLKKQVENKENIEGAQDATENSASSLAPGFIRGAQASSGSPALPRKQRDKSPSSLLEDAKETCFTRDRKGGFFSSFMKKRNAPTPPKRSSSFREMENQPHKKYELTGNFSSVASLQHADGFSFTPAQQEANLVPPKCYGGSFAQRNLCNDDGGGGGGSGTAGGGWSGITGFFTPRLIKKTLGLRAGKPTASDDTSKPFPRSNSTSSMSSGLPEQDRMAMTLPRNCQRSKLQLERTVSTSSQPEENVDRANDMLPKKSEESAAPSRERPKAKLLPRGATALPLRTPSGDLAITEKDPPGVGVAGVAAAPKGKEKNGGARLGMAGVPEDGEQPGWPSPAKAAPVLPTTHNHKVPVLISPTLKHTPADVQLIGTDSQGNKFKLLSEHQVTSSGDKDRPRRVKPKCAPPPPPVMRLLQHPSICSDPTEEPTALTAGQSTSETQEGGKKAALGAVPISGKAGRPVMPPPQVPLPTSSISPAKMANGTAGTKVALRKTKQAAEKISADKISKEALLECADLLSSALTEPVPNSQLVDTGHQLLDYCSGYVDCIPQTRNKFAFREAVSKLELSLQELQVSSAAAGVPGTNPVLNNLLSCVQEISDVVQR
UniProt P55273: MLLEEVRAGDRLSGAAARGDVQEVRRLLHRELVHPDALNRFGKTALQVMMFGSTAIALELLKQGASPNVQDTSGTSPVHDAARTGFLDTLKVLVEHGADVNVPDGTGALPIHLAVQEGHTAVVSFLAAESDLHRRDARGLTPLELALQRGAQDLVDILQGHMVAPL
UniProt P50613: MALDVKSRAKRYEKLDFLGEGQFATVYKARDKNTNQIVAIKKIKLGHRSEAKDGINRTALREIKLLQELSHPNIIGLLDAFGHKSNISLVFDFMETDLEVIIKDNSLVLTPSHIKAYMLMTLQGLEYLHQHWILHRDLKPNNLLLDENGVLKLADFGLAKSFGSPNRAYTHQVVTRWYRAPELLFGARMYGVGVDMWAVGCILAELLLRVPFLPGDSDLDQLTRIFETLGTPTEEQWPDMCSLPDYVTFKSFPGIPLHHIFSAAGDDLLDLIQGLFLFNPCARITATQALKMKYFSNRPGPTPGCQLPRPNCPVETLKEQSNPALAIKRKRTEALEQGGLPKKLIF

Compound: Nc1ncnc2c1ncn2[C@@H]1O[C@H](COP(=O)(O)OP(=O)(O)NP(=O)(O)O)[C@@H](O)[C@H]1O [adenylyl imidodiphosphate]
Test: NP40-soluble protein abundance relative to vehicle (solubility fold change) (ratio); higher = more soluble protein in presence of AMP-PNP
In short: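 Crude Jurkat lysate, prepared by Dounce homogenisation, was exposed to eight concentrations from 0.1 to 10 mM for 10 min at room temperature and then 3 min at 37 °C. Solubilisation used 0.8% NP40 with benzonase for 60 min at 4 °C, followed by ultracentrifugation and TMT labelling of the supernatant for LC-MS/MS. After vsn normalisation of intensities, each value is the fold change against the detergent-processed vehicle within each replicate, across three independent experiments.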

Row | Target | NP40-soluble protein abundance (concentration: 1mM) | NP40-soluble protein abundance (concentration: 2mM) | NP40-soluble protein abundance (concentration: 4mM) | NP40-soluble protein abundance (concentration: 6mM) | NP40-soluble protein abundance (concentration: 8mM) | NP40-soluble protein abundance (concentration: 10mM)
1 | STAT5B (UniProt P51692) | 0.992 ± 0.019 | 1.02 ± 0.011 | 0.988 ± 0.014 | 0.9707 ± 0.0088 | 0.9504 ± 0.0035 | 0.941 ± 0.017
2 | NT5C2 (UniProt P49902) | 0.972 ± 0.053 | 0.888 ± 0.071 | 0.969 ± 0.05 | 1.06 ± 0.13 | 1.11 ± 0.12 | 1.05 ± 0.07
3 | FNTB (UniProt P49356) | 1.02 ± 0.014 | 0.9976 ± 0.0089 | 1.02 ± 0.054 | 1.01 ± 0.029 | 1.01 ± 0.011 | 1.04 ± 0.013
4 | UniProt P49336 and related entries | 1.037 ± 0.0074 | 1.03 ± 0.02 | 1.03 ± 0.022 | 1.04 ± 0.015 | 1.01 ± 0.021 | 1.04 ± 0.029
5 | GCLC (UniProt P48506) | 0.993 ± 0.027 | 0.928 ± 0.043 | 0.976 ± 0.033 | 0.941 ± 0.014 | 0.963 ± 0.029 | 0.922 ± 0.02
6 | RPL21 (UniProt P46778) | 1.03 ± 0.079 | 1.04 ± 0.053 | 1 ± 0.14 | 0.894 ± 0.12 | 0.807 ± 0.049 | 0.912 ± 0.18
7 | PLK1 (UniProt P53350) | 1.046 ± 0.0027 | 1.04 ± 0.066 | 1.1 ± 0.037 | 1.05 ± 0.03 | 1.1 ± 0.045 | 1.08 ± 0.073
8 | FASN (UniProt P49327) | 0.959 ± 0.021 | 0.874 ± 0.091 | 0.941 ± 0.026 | 0.913 ± 0.026 | 0.917 ± 0.035 | 0.896 ± 0.036
9 | CENPF (UniProt P49454) | 1.06 ± 0.03 | 1.11 ± 0.049 | 1.11 ± 0.014 | 1.08 ± 0.051 | 1.05 ± 0.024 | 1.085 ± 0.0087
10 | PPT1 (UniProt P50897) | 1.01 ± 0.04 | 1.05 ± 0.13 | 1 ± 0.075 | 1.07 ± 0.074 | 1.04 ± 0.071 | 1.01 ± 0.073
11 | CPT1A (UniProt P50416) | 0.925 ± 0.017 | 0.92 ± 0.093 | 0.924 ± 0.025 | 0.948 ± 0.031 | 0.938 ± 0.045 | 0.979 ± 0.059
12 | UniProt P51812 | 1.05 ± 0.03 | 0.941 ± 0.087 | 1.04 ± 0.015 | 0.961 ± 0.0088 | 1.052 ± 0.0055 | 0.931 ± 0.018
13 | RPL34 (UniProt P49207) | 1.03 ± 0.011 | 1.01 ± 0.03 | 0.978 ± 0.019 | 0.922 ± 0.011 | 0.749 ± 0.04 | 0.995 ± 0.016
14 | CETN2 (UniProt P41208) | 0.97 ± 0.043 | 1.03 ± 0.029 | 0.938 ± 0.04 | 0.931 ± 0.031 | 0.914 ± 0.026 | 0.882 ± 0.031
15 | HTT (UniProt P42858) | 1.007 ± 0.0014 | 0.978 ± 0.035 | 0.994 ± 0.015 | 0.949 ± 0.027 | 0.9545 ± 0.0084 | 0.948 ± 0.021
16 | UniProt P49840 | 1.01 ± 0.04 | 0.963 ± 0.045 | 1.02 ± 0.017 | 1.03 ± 0.086 | 1.08 ± 0.048 | 1.09 ± 0.058
17 | UniProt P53609 and related entries | 1.04 ± 0.02 | 0.993 ± 0.029 | 1.023 ± 0.0089 | 1.01 ± 0.061 | 1.05 ± 0.015 | 1.02 ± 0.025
18 | EIF2B2 (UniProt P49770) | 0.921 ± 0.037 | 0.904 ± 0.047 | 0.929 ± 0.022 | 0.945 ± 0.056 | 0.956 ± 0.069 | 0.958 ± 0.09
19 | UniProt P42684 and related entries | 0.986 ± 0.014 | 0.991 ± 0.024 | 0.998 ± 0.018 | 0.984 ± 0.017 | 0.972 ± 0.016 | 0.9969 ± 0.0055
20 | UniProt P52630 and related entries | 0.988 ± 0.036 | 0.984 ± 0.031 | 1.04 ± 0.04 | 1.03 ± 0.026 | 1.043 ± 0.0069 | 1.03 ± 0.029
21 | UniProt P49406 and related entries | 0.948 ± 0.081 | 0.907 ± 0.14 | 0.939 ± 0.12 | 0.9 ± 0.087 | 0.927 ± 0.12 | 0.904 ± 0.11
22 | DRG2 (UniProt P55039) | 1 ± 0.02 | 0.933 ± 0.073 | 1.01 ± 0.019 | 0.981 ± 0.027 | 1.01 ± 0.028 | 0.987 ± 0.02
23 | UniProt P52739 and related entries | 0.97 ± 0.027 | 0.965 ± 0.027 | 0.97 ± 0.022 | 0.98 ± 0.043 | 0.9727 ± 0.0037 | 0.962 ± 0.016
24 | CSK (UniProt P41240) | 0.984 ± 0.024 | 0.951 ± 0.038 | 0.962 ± 0.028 | 0.946 ± 0.017 | 0.944 ± 0.018 | 0.905 ± 0.042
25 | SEC13 (UniProt P55735) | 0.982 ± 0.042 | 0.934 ± 0.081 | 0.945 ± 0.03 | 0.971 ± 0.038 | 1 ± 0.032 | 0.964 ± 0.025
26 | GNPDA1 (UniProt P46926) | 0.926 ± 0.077 | 0.869 ± 0.0095 | 0.968 ± 0.12 | 1.14 ± 0.16 | 1.15 ± 0.14 | 1.11 ± 0.11
27 | NCAPD3 (UniProt P42695) | 0.993 ± 0.023 | 0.977 ± 0.058 | 0.988 ± 0.031 | 0.936 ± 0.045 | 0.928 ± 0.015 | 0.96 ± 0.038
28 | MLH1 (UniProt P40692) | 1.1 ± 0.07 | 1.1 ± 0.17 | 1.18 ± 0.12 | 1.17 ± 0.1 | 1.2 ± 0.12 | 1.18 ± 0.12
29 | CDKN2D (UniProt P55273) | 0.993 ± 0.051 | 0.978 ± 0.023 | 0.964 ± 0.024 | 0.9304 ± 0.0073 | 0.9717 ± 0.0056 | 0.9 ± 0.039
30 | UniProt P50613 | 0.99 ± 0.042 | 0.942 ± 0.065 | 0.968 ± 0.039 | 1.01 ± 0.027 | 1.01 ± 0.031 | 0.994 ± 0.036

Reprinted at random: 2 entries already listed
Row | Target | NP40-soluble protein abundance (concentration: 1mM) | NP40-soluble protein abundance (concentration: 2mM) | NP40-soluble protein abundance (concentration: 4mM) | NP40-soluble protein abundance (concentration: 6mM) | NP40-soluble protein abundance (concentration: 8mM) | NP40-soluble protein abundance (concentration: 10mM)
4 | UniProt P49336 and related entries | 1.037 ± 0.0074 | 1.03 ± 0.02 | 1.03 ± 0.022 | 1.04 ± 0.015 | 1.01 ± 0.021 | 1.04 ± 0.029
23 | UniProt P52739 and related entries | 0.97 ± 0.027 | 0.965 ± 0.027 | 0.97 ± 0.022 | 0.98 ± 0.043 | 0.9727 ± 0.0037 | 0.962 ± 0.016
